PubChem BioAssay AID686938 – Drosophila RNAi Screening Center | 2013
Purpose: 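Looking for CRAC channel components and the factors controlling them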 (primary screen). Cell system: Drosophila S2R+ cells. Reagents: long dsRNA against Drosophila genes, about 0.25 µg dsRNA per well, roughly 10,000 cells. Timing: 5 days of knock-down before the calcium assay. Treatment: thapsigargin (SERCA pump blocker) to empty calcium stores; entry signal taken 4 min after adding it. Measurement: 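Duplicate raw fluo-4 intensities per well from a plate reader, at rest and four minutes after thapsigargin emptied calcium stores; entry-to-rest ratio filled for only some wells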. Scale: calcium entry signal: higher = stronger calcium signal after store depletion; resting calcium signal: higher = higher resting calcium signal. Units: calcium entry signal in fluorescence units; resting calcium signal in fluorescence units. Active means: 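Called when the plate z-score of the entry-to-rest ratio, mean of duplicates, falls below −3; wells with low overall dye signal (Fmax z below −2) or more than five off-targets excluded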. Calls: active = strongly reduced calcium entry; inactive = no strong reduction.
The screen tested about 23,000 reagents; shown is an unselected part of those that have a named target and a result. In the full data, 75 (0.33%) were called active. 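Raw plate signals without normalisation; calls rest on plate z-scores that were not deposited; ratio present for only 364 wells.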 Names joined by + are all predicted targets of the reagent. The record does not give: the dose of the treatment.

With CG5608 [DRSC15841], how do the results read?
calcium entry signal, replicate 1: 4.35e7; calcium entry signal, replicate 2: 5.36e7; resting calcium signal, replicate 1: 1.91e7; resting calcium signal, replicate 2: 2.39e7; activity call: inactive

With CdGAPr [DRSC03289], how do the results read?
calcium entry signal, replicate 1: 3.58e7; calcium entry signal, replicate 2: 5.11e7; resting calcium signal, replicate 1: 1.74e7; resting calcium signal, replicate 2: 1.99e7; activity call: inactive

How did the screen score Cyp4d21 [DRSC03305]?
calcium entry signal, replicate 1: 4.62e7; resting calcium signal, replicate 1: 2.62e7; activity call: inactive

What did the screen give for Tob [DRSC20294]?
calcium entry signal, replicate 1: 3.73e7; calcium entry signal, replicate 2: 4.04e7; resting calcium signal, replicate 1: 1.70e7; resting calcium signal, replicate 2: 1.90e7; activity call: inactive

What is on record for CG1316 [DRSC08304]?
calcium entry signal, replicate 1: 3.58e7; calcium entry signal, replicate 2: 3.32e7; resting calcium signal, replicate 1: 1.80e7; resting calcium signal, replicate 2: 1.52e7; activity call: inactive

With RpS23 [DRSC07169], what does the deposit list?
calcium entry signal, replicate 1: 1.30e7; calcium entry signal, replicate 2: 1.69e7; resting calcium signal, replicate 1: 8.34e6; resting calcium signal, replicate 2: 1.05e7; activity call: inactive

What is on record for CR43096 + CG43060 [DRSC12654]?
calcium entry signal, replicate 1: 3.13e7; calcium entry signal, replicate 2: 5.66e7; resting calcium signal, replicate 1: 1.58e7; resting calcium signal, replicate 2: 2.46e7; activity call: inactive

For Cap-D3 + tomb [DRSC02347], how do the results read?
calcium entry signal, replicate 1: 2.06e7; calcium entry signal, replicate 2: 2.11e7; resting calcium signal, replicate 1: 1.11e7; resting calcium signal, replicate 2: 9.57e6; activity call: inactive

For CG5177 [DRSC02824], what was measured?
calcium entry signal, replicate 1: 4.91e7; resting calcium signal, replicate 1: 1.93e7; activity call: inactive

With bru1 [DRSC01234], what does the deposit list?
calcium entry signal, replicate 1: 2.84e7; calcium entry signal, replicate 2: 2.53e7; resting calcium signal, replicate 1: 1.84e7; resting calcium signal, replicate 2: 1.56e7; activity call: inactive

Which result is listed for bru1 [DRSC01236]?
calcium entry signal, replicate 1: 4.93e7; calcium entry signal, replicate 2: 5.18e7; resting calcium signal, replicate 1: 2.46e7; resting calcium signal, replicate 2: 2.60e7; activity call: inactive

For bru1 [DRSC01237], what does the deposit list?
calcium entry signal, replicate 1: 4.49e7; calcium entry signal, replicate 2: 4.64e7; resting calcium signal, replicate 1: 2.23e7; resting calcium signal, replicate 2: 2.00e7; activity call: inactive

For bru1 [DRSC01238], what does the deposit list?
calcium entry signal, replicate 1: 4.38e7; calcium entry signal, replicate 2: 4.50e7; resting calcium signal, replicate 1: 2.11e7; resting calcium signal, replicate 2: 1.94e7; activity call: inactive

How did the screen score bru1 [DRSC03485]?
calcium entry signal, replicate 1: 4.41e7; resting calcium signal, replicate 1: 2.32e7; activity call: inactive

What did the screen give for mal [DRSC20581]?
calcium entry signal, replicate 1: 2.72e7; calcium entry signal, replicate 2: 2.88e7; resting calcium signal, replicate 1: 1.50e7; resting calcium signal, replicate 2: 1.33e7; activity call: inactive

With CG12155 [DRSC17826], what does the deposit list?
calcium entry signal, replicate 1: 4.28e7; calcium entry signal, replicate 2: 4.14e7; resting calcium signal, replicate 1: 2.04e7; resting calcium signal, replicate 2: 1.95e7; activity call: inactive

What is on record for CG12155 [DRSC23294]?
calcium entry signal, replicate 1: 4.14e7; calcium entry signal, replicate 2: 2.71e7; resting calcium signal, replicate 1: 1.88e7; resting calcium signal, replicate 2: 1.43e7; activity call: inactive

What is on record for CG13579 [DRSC04215]?
calcium entry signal, replicate 1: 4.85e7; calcium entry signal, replicate 2: 5.08e7; resting calcium signal, replicate 1: 2.45e7; resting calcium signal, replicate 2: 2.26e7; activity call: inactive

2 entries from above, sorted by “resting calcium signal, replicate 2”, lowest first:
bru1 [DRSC01234]: calcium entry signal, replicate 1 = 2.84e7; calcium entry signal, replicate 2 = 2.53e7; resting calcium signal, replicate 1 = 1.84e7; resting calcium signal, replicate 2 = 1.56e7; activity call = inactive
bru1 [DRSC01236]: calcium entry signal, replicate 1 = 4.93e7; calcium entry signal, replicate 2 = 5.18e7; resting calcium signal, replicate 1 = 2.46e7; resting calcium signal, replicate 2 = 2.60e7; activity call = inactive

Additional entries follow:
With Tsf2 [DRSC09751], what was measured?
calcium entry signal, replicate 1: 5.71e7; calcium entry signal, replicate 2: 4.62e7; resting calcium signal, replicate 1: 3.91e7; resting calcium signal, replicate 2: 1.78e7; activity call: inactive

With CG4650 [DRSC02767], what was measured?
calcium entry signal, replicate 1: 3.25e7; calcium entry signal, replicate 2: 2.11e7; resting calcium signal, replicate 1: 1.59e7; resting calcium signal, replicate 2: 1.04e7; activity call: inactive

What is on record for CtsF [DRSC12056]?
calcium entry signal, replicate 1: 2.04e7; calcium entry signal, replicate 2: 2.66e7; resting calcium signal, replicate 1: 1.05e7; resting calcium signal, replicate 2: 1.25e7; activity call: inactive

For CtsF [DRSC12195], how do the results read?
calcium entry signal, replicate 1: 2.10e7; calcium entry signal, replicate 2: 2.74e7; resting calcium signal, replicate 1: 1.03e7; resting calcium signal, replicate 2: 1.21e7; activity call: inactive

Which result is listed for CtsF [DRSC12196]?
calcium entry signal, replicate 1: 3.80e7; calcium entry signal, replicate 2: 1.88e7; resting calcium signal, replicate 1: 1.82e7; resting calcium signal, replicate 2: 9.90e6; activity call: inactive

For Phb1 [DRSC03563], what does the deposit list?
calcium entry signal, replicate 1: 2.71e7; resting calcium signal, replicate 1: 1.43e7; activity call: inactive

For subdued [DRSC15137], what was measured?
calcium entry signal, replicate 1: 3.19e7; calcium entry signal, replicate 2: 2.74e7; resting calcium signal, replicate 1: 1.50e7; resting calcium signal, replicate 2: 1.36e7; activity call: inactive

With CG6790 [DRSC16117], what was measured?
calcium entry signal, replicate 1: 2.13e7; calcium entry signal, replicate 2: 3.13e7; resting calcium signal, replicate 1: 9.51e6; resting calcium signal, replicate 2: 1.36e7; activity call: inactive

What did the screen give for CG34382 [DRSC08999]?
calcium entry signal, replicate 1: 2.94e7; calcium entry signal, replicate 2: 4.44e7; resting calcium signal, replicate 1: 1.49e7; resting calcium signal, replicate 2: 1.99e7; activity call: inactive

For CG34382 [DRSC10166], how do the results read?
calcium entry signal, replicate 1: 3.14e7; calcium entry signal, replicate 2: 4.07e7; resting calcium signal, replicate 1: 1.65e7; resting calcium signal, replicate 2: 1.83e7; activity call: inactive

How did the screen score CG34382 [DRSC10167]?
calcium entry signal, replicate 1: 3.53e7; calcium entry signal, replicate 2: 4.94e7; resting calcium signal, replicate 1: 1.73e7; resting calcium signal, replicate 2: 1.92e7; activity call: inactive
